These are yes or no findings as the source states them, for the method shown. Some binding calls cover weakened binding; strength is not graded here.
Columns and labels:
[1] = biological target: human TIE2-his (Sino Biological, 10700-H08H) (human) (UniProt Q02763); experiment: ELISA, IgG on coated hTIE2-his
[2] = biological target: human TIE2-his (Sino Biological, 10700-H08H) (human) (UniProt Q02763); experiment: Octet (BLI), antibody fixed on the biosensor
[3] = biological target: human TIE2-his (Sino Biological, 10700-H08H) (human) (UniProt Q02763); experiment: competitive ELISA on coated hTIE2, antibody at 2 ug/mL with ANG1 or ANG2 present
[4] = biological target: human TIE2-his (Sino Biological, 10700-H08H) (human) (UniProt Q02763); experiment: ELISA, purified IgG on coated hTIE2-his (1 µg/mL), HRP anti-human detection
[5] = biological target: T1, human TIE2 overexpressed on CHO-K1 cells (human, UniProt Q02763 23-1124); experiment: flow cytometry on hTIE2/CHO-K1, clones at 2 ug/mL, PE anti-human IgG-Fc detection
T1 construct: whole, on cells; also called hTIE2/CHO-K1; hTIE2 CHO-K1

Chains of the proteins cited; added tags and fusions are not shown. Lines headed by an entry give the natural chain unless they say otherwise; changes in a name come on top. Residues count along the entry.
UniProt Q02763: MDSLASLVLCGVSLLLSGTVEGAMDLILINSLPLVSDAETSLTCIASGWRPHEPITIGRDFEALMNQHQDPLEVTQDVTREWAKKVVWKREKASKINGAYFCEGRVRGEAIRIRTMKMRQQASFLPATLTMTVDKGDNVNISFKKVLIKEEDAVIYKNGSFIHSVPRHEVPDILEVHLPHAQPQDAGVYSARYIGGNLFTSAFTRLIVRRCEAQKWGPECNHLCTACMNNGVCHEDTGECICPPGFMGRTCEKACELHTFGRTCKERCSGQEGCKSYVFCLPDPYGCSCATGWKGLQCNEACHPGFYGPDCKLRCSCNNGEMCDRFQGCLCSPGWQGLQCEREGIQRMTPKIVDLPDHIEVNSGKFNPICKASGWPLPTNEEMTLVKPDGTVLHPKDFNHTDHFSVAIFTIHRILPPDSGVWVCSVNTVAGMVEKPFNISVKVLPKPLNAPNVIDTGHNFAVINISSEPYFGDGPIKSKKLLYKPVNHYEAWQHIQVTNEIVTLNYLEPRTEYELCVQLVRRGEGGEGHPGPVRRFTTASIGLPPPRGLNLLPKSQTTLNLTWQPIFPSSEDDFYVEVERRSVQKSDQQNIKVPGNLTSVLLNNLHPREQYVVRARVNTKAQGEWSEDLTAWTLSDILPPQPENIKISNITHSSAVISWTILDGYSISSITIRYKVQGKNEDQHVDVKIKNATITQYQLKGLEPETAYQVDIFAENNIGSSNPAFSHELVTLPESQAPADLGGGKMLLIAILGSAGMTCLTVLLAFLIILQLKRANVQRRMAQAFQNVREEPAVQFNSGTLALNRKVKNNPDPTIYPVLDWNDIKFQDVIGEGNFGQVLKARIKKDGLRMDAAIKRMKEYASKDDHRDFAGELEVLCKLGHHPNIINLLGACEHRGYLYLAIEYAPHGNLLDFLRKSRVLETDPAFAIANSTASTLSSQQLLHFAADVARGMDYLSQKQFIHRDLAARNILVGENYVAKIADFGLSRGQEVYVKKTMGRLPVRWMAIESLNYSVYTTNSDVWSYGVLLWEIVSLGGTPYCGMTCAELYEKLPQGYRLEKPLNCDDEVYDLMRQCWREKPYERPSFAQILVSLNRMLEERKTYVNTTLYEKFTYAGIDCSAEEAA
human TIE2-his (Sino Biological, 10700-H08H): residues 23-745 of Q02763

[6] = biological target: T1, human TIE2 overexpressed on CHO-K1 cells; experiment: flow cytometry on hTIE2/CHO-K1 cells, 2 µg/mL clone, PE anti-human IgG-Fc secondary
Protocol: In order to determine the binding to cell-expressing TIE2, the binding to the self-established human/mouse TIE2 overexpressing CHO-K1 cell lines (hTIE2/CHO-K1, mTIE2/CHO-K1) was measured using flow cytometry. Each cell line was maintained and cultured, hTIE2 CHO-K1 was washed with PBS, 5 mM EDTA was added thereto to obtain a cell suspension, and each cell was recovered through centrifugation. A cell suspension of 5×10⁶ cells/mL was prepared using FACS-dedicated buffer (PBS containing 2% FBS, 0.05% sodium azide), and 100 μL of the cell suspension was dispensed into each tube. 100 μL of 2 μg/mL clones was added to each test tube and allowed to stand at 4° C. for 30 minutes to induce cell binding. The cells were washed with 2 mL of FACS buffer, 100 μL of a secondary antibody dilution (1/500, PE-conjugated anti-human IgG-Fc polyclonal antibody fragment, *A80-248PE, Bethyl Laboratories Inc. US) was added thereto, and the resulting mixture was allowed to stand at 4° C. for 20 minutes to perform fluorescent labeling. The cells were washed with 2 mL of FACS buffer and then suspended in 200 μL of FACS buffer. […]

[7] = biological target: human TIE2-his (Sino Biological, 10700-H08H) (human) (UniProt Q02763); experiment: competitive ELISA on coated hTIE2: 2F2 at 2 µg/mL with ANG1 varied up to 50 µg/mL as competitor, bound antibody detected with HRP anti-human [panel 2F2 vs. ANG1]
[8] = biological target: human TIE2-his (Sino Biological, 10700-H08H) (human) (UniProt Q02763); experiment: competitive ELISA on coated hTIE2: 2F2 at 2 µg/mL with ANG2 varied up to 50 µg/mL as competitor, bound antibody detected with HRP anti-human [panel 2F2 vs. ANG2]

Measured: binding

B1: anti-TIE2 antibody 2F2 (IgG) (antibody, V domains shown)
VH: QVQLVESGGGLVQPGGSLRLSCAASGFTFSSYAMTWVRQAPGKGLEWVSRISGSGGSTNYADSVKGRFTISRDNSKNTLYLQMNSLRAEDTAVYYCARGGLHHGFDIWGQGTMVTVSS
VL: SYELTQPPSLSVAPGKTARITCDGDNIESKSVHWYQQKPGQAPVLVIYYDNDRPSGIPERFSGSNSGNTATLTISRVEAGDEADYYCQVWDTYTDQPVFGGGTKLTVLG
notes: also called 2F2 clone
binds: [1] | [2] | [3] | [4] | [5] | [6] | [7] | [8]

Source: patent US20220213201A1 (PHARMABCINE, published 2022)
